Measurements published in PMC9174988.
These are yes or no findings as the source states them, for the method shown. In cells and extracts the contact can be indirect. Here binding means that the protein was enriched with, or labelled near, the bait; the list need not be complete. For part of these data: No binding means not detected with the bait.

Protein sequences, listed by entry. Tags and fused reporters are not part of them.
UniProt P61264: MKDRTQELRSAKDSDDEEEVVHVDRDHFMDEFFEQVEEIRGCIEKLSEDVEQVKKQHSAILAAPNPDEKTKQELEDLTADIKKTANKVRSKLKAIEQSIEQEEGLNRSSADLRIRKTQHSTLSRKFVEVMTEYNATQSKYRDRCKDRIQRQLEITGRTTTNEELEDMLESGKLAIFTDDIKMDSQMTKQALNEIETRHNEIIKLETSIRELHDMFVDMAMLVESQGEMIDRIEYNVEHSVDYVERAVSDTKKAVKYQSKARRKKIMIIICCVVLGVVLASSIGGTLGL
UniProt Q8BVE3: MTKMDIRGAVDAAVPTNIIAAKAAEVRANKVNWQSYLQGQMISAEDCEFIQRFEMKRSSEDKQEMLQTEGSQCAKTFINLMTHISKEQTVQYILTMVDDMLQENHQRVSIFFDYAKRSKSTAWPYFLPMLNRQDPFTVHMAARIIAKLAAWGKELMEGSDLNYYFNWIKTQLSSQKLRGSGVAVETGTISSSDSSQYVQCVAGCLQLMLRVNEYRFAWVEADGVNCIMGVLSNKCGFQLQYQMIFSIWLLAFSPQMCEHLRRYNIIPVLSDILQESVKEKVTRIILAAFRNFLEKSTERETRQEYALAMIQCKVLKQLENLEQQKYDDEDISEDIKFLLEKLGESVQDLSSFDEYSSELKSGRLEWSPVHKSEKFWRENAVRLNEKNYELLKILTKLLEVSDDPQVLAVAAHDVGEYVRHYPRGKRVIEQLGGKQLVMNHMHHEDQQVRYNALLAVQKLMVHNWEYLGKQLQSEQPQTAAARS

T1: CLN3-BioID (UniProt Q13286)
T1 sequence: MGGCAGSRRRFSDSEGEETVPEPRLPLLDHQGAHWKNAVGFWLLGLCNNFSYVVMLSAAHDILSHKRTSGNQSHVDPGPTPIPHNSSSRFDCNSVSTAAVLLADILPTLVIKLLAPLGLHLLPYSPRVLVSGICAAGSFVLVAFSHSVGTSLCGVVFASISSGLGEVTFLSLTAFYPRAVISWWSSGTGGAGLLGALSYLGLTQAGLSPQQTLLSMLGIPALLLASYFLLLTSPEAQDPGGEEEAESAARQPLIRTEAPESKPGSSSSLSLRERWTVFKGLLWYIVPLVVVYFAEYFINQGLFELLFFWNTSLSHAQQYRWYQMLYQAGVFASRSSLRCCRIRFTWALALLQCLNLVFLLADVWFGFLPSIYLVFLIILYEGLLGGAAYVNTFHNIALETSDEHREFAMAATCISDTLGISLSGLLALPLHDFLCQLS

T2: CLN6-BioID (UniProt Q9NWW5)
T2 sequence: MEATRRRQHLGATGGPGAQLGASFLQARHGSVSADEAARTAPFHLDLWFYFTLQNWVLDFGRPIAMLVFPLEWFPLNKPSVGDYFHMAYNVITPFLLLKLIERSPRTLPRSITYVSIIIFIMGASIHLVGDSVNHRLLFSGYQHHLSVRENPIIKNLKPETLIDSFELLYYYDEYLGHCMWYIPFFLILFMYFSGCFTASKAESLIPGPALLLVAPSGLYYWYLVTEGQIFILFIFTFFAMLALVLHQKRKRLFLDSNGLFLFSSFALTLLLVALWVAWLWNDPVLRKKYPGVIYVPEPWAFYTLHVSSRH


What was measured:
[1] = target: T1, CLN3-BioID; assay: proximity labelling; proximity-dependent biotin identification (BioID) screens with CLN3, CLN6 and CLN8 as baits in neuroblastoma cells
[2] = target: T2, CLN6-BioID; assay: as above

Row | Molecule | binding [1] | binding [2]
1 | mammalian uncoordinated-18 (in neuroblastoma cells) | binds | binds
2 | STX1B (in neuroblastoma cells) (from UniProt P61264 1-288) | binds | binds
3 | Synaptobrevin homolog YKT6 (in neuroblastoma cells) (protein, UniProt Q9CQW1 1-198) MKLYSLSVLYKGDPKAVLLKAAYDVSSFSFFQRSSVQEFMTFTSQLIVERSGKGSRASVKEQEYLCHVYVRSDSLAGVVIADSEYPSRVAFTLLEKVLDEFSKQVDRIDWPVGSPATIQYTGLDDHLSKYQNPREADPMSKVQAELDETKIILHNTMESLLERGEKLDDLVSKSEVLGTQSKAFYKTARKQNSCCAIM | binds | binds

Continued, values first:

Row | binding [1] | binding [2] | Molecule
4 | binds | binds | ATPase H+ Transporting V1 Subunit H (in neuroblastoma cells) (from UniProt Q8BVE3 1-483)
5 | no binding | – | CLN6-BioID (protein, UniProt Q9NWW5 1-311) MEATRRRQHLGATGGPGAQLGASFLQARHGSVSADEAARTAPFHLDLWFYFTLQNWVLDFGRPIAMLVFPLEWFPLNKPSVGDYFHMAYNVITPFLLLKLIERSPRTLPRSITYVSIIIFIMGASIHLVGDSVNHRLLFSGYQHHLSVRENPIIKNLKPETLIDSFELLYYYDEYLGHCMWYIPFFLILFMYFSGCFTASKAESLIPGPALLLVAPSGLYYWYLVTEGQIFILFIFTFFAMLALVLHQKRKRLFLDSNGLFLFSSFALTLLLVALWVAWLWNDPVLRKKYPGVIYVPEPWAFYTLHVSSRH
